Substitutions are numbered along the chain they refer to. These are yes or no findings as the source states them, for the method shown. Some binding calls cover weakened binding; strength is not graded here.

B1: h2927 (antibody, V domains shown)
VH: EVQLLESGGGLVQPGGSLRLSCAASGFTFSNFGMSWVRQAPGKGLEWVASVRSGSGRTYYSDNVKGRFTISRDNSKNTLYLQMNSLRAEDTAVYYCVRYDHYTGTSDYWGQGTLVTVSS
VL: DVVMTQSPLSLPVTPGEPASISCKSSQSLLDYDGKTYLNWLLQKPGQSPQRLIYKVSNRDSGVPDRFSGSGSGTDFTLKISRVEAEDVGVYYCWQGTHFPRSFGQGTKVEIK
B2: h49k3G (antibody, V domains shown)
VH: B1 VH with S55G, T103S
VL: B1 VL with P15L, Y32S, S102T
B3: h2926 (antibody, V domains shown)
VH: B1 VH
VL: B1 VL with S102T
B4: h2826 (antibody, V domains shown)
VH: B1 VH with T103S
VL: B1 VL with S102T
B5: h4917G (antibody, V domains shown)
VH: B1 VH with S55G, T103S
VL: B1 VL with P15L, Y32S, S57T, D60E
B6: h2929 (antibody, V domains shown)
VH: B1 VH
VL: B1 VL with K24R, L30V, K44R, T97S, F103Y
B7: h2831 (antibody, V domains shown)
VH: B1 VH with T103S
VL: B1 VL with P15L, K55R, S57T, S61T
B8: h2931 (antibody, V domains shown)
VH: B1 VH
VL: B1 VL with P15L, K55R, S57T, S61T

The target in the first assay is Amyloid Beta (Aβ) 1-42 (human). In words: competition ELISA on plate-coated Aβ42 fibrils; competitor: biotinylated hBP (bapineuzumab). (An ELISA detects its analyte on a solid surface through an enzyme-linked reagent.)
Regarding B1, the binding entry was “binds”. Take B2: the binding result is reported as “binds”. As to B3, the binding entry is reported as “binds”. Take B4: the binding result is on record as “binds”. Still for that read-out and setting: with B5 the entry was “binds”; with B6, “binds”.

In a further assay the target is Aβ1-28 (human). In words: SPR (BIAcore): antibody captured by anti-human Fc, Aβ1-28 as analyte in 2-fold dilutions, 1:1 binding fit overlaid.
In the case of B7, the binding entry is “binds”. On the same count and under the same terms, the same measure for B8: “binds”.

These data come from US20250179161A1.
